PubChem BioAssay AID1259308 | NCATS | 2017
Here is one part, drawn at random, of about 59,000 deposited reagents. About 1,510 of them (2.6%) count as active. 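Calls use total luciferase alone and ignore viability, so some active siRNAs may act by altering cell number.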 Reagents against one gene are numbered here. Not all columns of the deposit are shown.

Screen: 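Knock-downs that increase output of a recombinant reporter protein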 (primary screen)
Cell system: human HEK293 embryonic kidney cells stably expressing firefly luciferase (HEK-CMV-Luc2-Hygro)
Knock-down reagent: single siRNA against human genes, 0.8 pmol siRNA per well
Duration: 72 h
Measurement: 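Reporter luminescence and viable-cell signal on separate replicate plates, given as percent of non-targeting control and median/MAD z-scores, plus per-cell luciferase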
Reading the numbers: total luciferase, z-score and total luciferase, % of control: higher = more reporter protein produced
Hit rule: 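An siRNA counts as active if its total luciferase robust z-score exceeds 3; genes with two or more such siRNAs out of three were retested with fresh siRNAs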
Calls: active = raised luciferase; inactive = no rise

LIMD1-AS1 #1 gave total luciferase, z-score 0.623; total luciferase, % of control 94.3; inactive. After knock-down of LIMD1-AS1 #2, the record shows total luciferase, z-score -0.0266; total luciferase, % of control 81.4; inactive. Knock-down of LIMD1-AS1 #3 resulted in: total luciferase, z-score 0.279; total luciferase, % of control 87.4; inactive. EFR3A #1 scored total luciferase, z-score 1.06; total luciferase, % of control 103; inactive. Depletion of EFR3A #2 resulted in: total luciferase, z-score 1.09; total luciferase, % of control 103; inactive. Depletion of EFR3A #3 gave: total luciferase, z-score 2.12; total luciferase, % of control 124; inactive.

Entries listed so far whose target name starts with E or e (3):
EFR3A #1 | total luciferase, z-score: 1.06; total luciferase, % of control: 103; Call: inactive
EFR3A #2 | total luciferase, z-score: 1.09; total luciferase, % of control: 103; Call: inactive
EFR3A #3 | total luciferase, z-score: 2.12; total luciferase, % of control: 124; Call: inactive

More reagents:
Depletion of PPP2R1A #1 gave: total luciferase, z-score 3.63; total luciferase, % of control 154; active. Against PPP2R1A #2, the values are total luciferase, z-score 4.34; total luciferase, % of control 168; active. Knock-down of PPP2R1A #3 gave: total luciferase, z-score 3.5; total luciferase, % of control 152; active. For LSM12 #1, the values are total luciferase, z-score 0.0961; total luciferase, % of control 83.8; inactive. For LSM12 #2, the values are total luciferase, z-score -0.0678; total luciferase, % of control 80.5; inactive. Against LSM12 #3, the values are total luciferase, z-score 0.244; total luciferase, % of control 86.7; inactive.
